The other results are listed elsewhere or left out. These are further read-outs of the screen, such as a control signal, another cell line or another target. No call is given for them. Compounds called inactive in the main read-out are mostly missing here. Potencies come from curve fits of mixed quality, noted in brackets.
Assay: qHTS Assay to Find Inhibitors of Chronic Active B-Cell Receptor Signaling
Settings: ABC-DLBCL IkBa-CBG/CBR reporter, luminescence ratio (green luciferase fused to IkBa over red control in TMD8 lymphoma cells), 4 h
Procedure, shortened: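 Cell line TMD8 (human ABC DLBCL), stably expressing tet-inducible CBG68-IkBa fusion and CBR; IMDM/0.5% FBS; cpd up to 46 uM; dox induction, 4 h, 37C/5% CO2; dual luminescence; green/red ratio; MG132 control.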

[1] = measured here: CBR red luminescence, cell number
[2] = measured here: IkBa-CBG green luminescence

| SMILES | AC50 [1] | AC50 [2] |
| --- | --- | --- |
| Cn1c(CCNC(=O)c2ccco2)nc2cc(NC(=O)c3ccccc3Cl)ccc21 | 11.2 µM [falling, partial curve, poor fit] | – |
| COc1cccc(C(=O)Nc2ccc3[nH]ncc3c2)c1 | 15.8 µM [falling, partial curve, poor fit] | – |
| CCOc1ccc(NC(=O)c2cccc(OC(=S)N3CCC(C)CC3)c2)cc1 | 35.5 µM [falling, single point] | – |
| COc1ccc(NC(=O)CSc2nccn2Cc2ccccc2)c(OC)c1 | 10 µM [falling, partial curve] | – |
| O=C(Cn1cnc2c(NCc3ccccc3)ncnc21)NCc1ccccc1 | 18.4 µM [rising, single point] | 20.6 µM [falling, single point] |
| CN(CCNC(=O)c1cc2c(=O)n(C)c3ccccc3c2n1C)Cc1ccccc1 | 14.6 µM [falling, partial curve, poor fit] | – |
| O=C(COC(=O)C1CC1)c1c[nH]c2ccccc12 | 5.8 µM [falling, single point] | – |
| O=C(Nc1ccc([N+](=O)[O-])cn1)c1ccc2c(c1)OCO2 | 2.51 µM [falling, full curve, poor fit] | – |
| CCC(=O)Nc1ccc(C(=O)Cn2ncc(Cl)c(Cl)c2=O)cc1 | 35.5 µM [falling, single point] | – |
| O=C1C=C(c2ccnc3cc(Cl)ccc23)C[C@@H](c2ccc3c(c2)OCO3)C1 | 16.4 µM [falling, partial curve] | 8.2 µM [rising, partial curve, poor fit] |
| Cc1ccc(NC(=O)CSc2nc3ccccc3c(=O)n2CCCC(=O)NCCCN2CCOCC2)cc1C | 0.562 µM [rising, full curve, poor fit] | – |
| Cc1cc(C)c(NC(=O)CN(C)C(=O)CCC(=O)c2ccc(C)s2)c(C)c1 | 0.92 µM [rising, full curve, poor fit] | – |
| CCCNc1nc(C)cc(-c2cc(C(=O)NCc3ccccc3)on2)n1 | 12.6 µM [falling, partial curve, poor fit] | – |
| Cc1cnc(C(=O)OCC(=O)Nc2cc(-c3cc(C)c(C)cc3C)nn2-c2ccccc2)cn1 | 6.51 µM [rising, partial curve, poor fit] | – |
| CC(=O)c1c(C)[nH]c(C(=O)OCC(=O)NCc2ccc(Cl)cc2)c1C | 20.6 µM [falling, single point] | – |
| Cc1ccc(S(=O)(=O)c2nnn(-c3ccc(F)c(Cl)c3)c2N)cc1 | 0.355 µM [rising, partial curve, poor fit] | – |
| Cc1ccccc1Nc1nnc(SCC(=O)NC(=O)NCc2ccco2)s1 | 20 µM [falling, partial curve, poor fit] | – |
| CC(c1ccco1)N(C(=O)c1ccccc1NS(=O)(=O)c1ccc(Cl)c([N+](=O)[O-])c1)c1ccccn1 (stereo unspecified) | 20.6 µM [falling, single point] | – |
| COc1cccc(NC(=O)c2cccc(Cl)c2)c1 | 9.2 µM [falling, partial curve] | – |
| COC(=O)c1ccccc1NC(=O)C1=CC(c2cccs2)=NS(=O)(=O)N1C | 0.631 µM [falling, full curve, poor fit] | – |
| COc1cc2cnc(-c3ccccc3)c(C(=O)c3ccc(F)cc3)c2cc1OC | 18.4 µM [falling, single point] | 16.4 µM [rising, partial curve, poor fit] |

| SMILES | AC50 [1] | AC50 [2] |
| --- | --- | --- |
| CCC(C(=O)N1CCN(c2cccc(Cl)c2)CC1)c1ccccc1 (stereo unspecified) | 14.6 µM [falling, partial curve, poor fit] | – |
| CC(/C=C/c1ccccc1)=N\NC(=O)Cn1cncn1 | 35.5 µM [rising, single point] | – |
| CCCCC1CCC(c2nc(-c3cccnc3)no2)CC1 (stereo unspecified) | 3.16 µM [rising, partial curve, poor fit] | – |
| Cc1ccc(C)c2c1sc(=NC(=O)CN1C(=O)CCC1=O)n2C | 23.1 µM [falling, single point] | – |
| CN(C)c1ccc(C(=O)Nc2cccc(S(=O)(=O)NC3=NCCCCC3)c2)cc1 | 10.3 µM [falling, partial curve] | – |
| Cc1ccnc(NC(=O)c2ccc(C(=O)c3ccccc3)cc2)c1 | 16.4 µM [falling, single point] | – |
| Cc1cc(NC(=O)c2ccc(Br)cc2)nc(C)n1 | 15.8 µM [falling, partial curve, poor fit] | – |
| O=C1CCCC/C1=C\Nc1ccc(Cl)cn1 | 0.461 µM [rising, partial curve, poor fit] | – |
| CCCCCCCn1c(=N)n(CC(O)c2ccco2)c2ccccc21 (stereo unspecified) | 11.2 µM [falling, single point] | – |
| NCCOc1ccccc1OCCN | 35.5 µM [falling, single point] | – |
| CCOc1ccc(S(=O)(=O)N2CCCCC2)cc1NC(=O)Cc1cccc(C(F)(F)F)c1 | 20.6 µM [rising, partial curve, poor fit] | – |
| O=C(O)CCCCCNC(=O)C(=O)C1C(=O)Nc2ccccc21 (stereo unspecified) | 7.94 µM [falling, partial curve] | – |
| CC(=O)Nc1ccc(NC(=O)C/C(C)=N/NC(=O)c2cccc3ccccc23)cc1 | 2 µM [falling, full curve] | – |
| COc1ccc(CCn2c(-c3cc([N+](=O)[O-])cc([N+](=O)[O-])c3)nc3nc4ccccc4nc32)cc1 | 20.6 µM [rising, partial curve, poor fit] | – |
| O=C(Cc1cc(C(=O)O)c2ccccc2n1)Nc1ccccc1 | 10 µM [falling, partial curve, poor fit] | – |
| COc1ccc(-c2c(C)n([O-])c3c([n+]2=O)CCCCC3)cc1OC | 35.5 µM [rising, single point] | – |
| Cc1cc(C)nc(NC(=O)/C=C/c2ccc(Cl)cc2)n1 | 7.94 µM [falling, partial curve] | – |
| CC(C)C(=O)NC(=S)Nc1ccc(S(=O)(=O)NC2CCCCC2)cc1 | 35.5 µM [falling, single point] | – |
| COc1ccc(N2CCN(C(=O)c3cccc(S(=O)(=O)N4CCOCC4)c3)CC2)cc1 | 23.1 µM [falling, single point] | – |
| CCOC(=O)[C@H]1[C@H]2COc3ccc(C)cc3[C@@H]2N2C(=O)CN(Cc3ccco3)C(=O)[C@@]12C | 14.6 µM [falling, partial curve, poor fit] | – |
| CC(=O)Nc1ccc(CN2CCN(Cc3ccc(C)cc3)C(CCO)C2)cc1 (stereo unspecified) | 35.5 µM [falling, single point] | – |

2 entries picked at random from those above:

| SMILES | AC50 [1] | AC50 [2] |
| --- | --- | --- |
| CCCCCCCn1c(=N)n(CC(O)c2ccco2)c2ccccc21 (stereo unspecified) | 11.2 µM [falling, single point] | – |
| Cc1cc(NC(=O)c2ccc(Br)cc2)nc(C)n1 | 15.8 µM [falling, partial curve, poor fit] | – |

Later entries.

| SMILES | AC50 [1] | AC50 [2] |
| --- | --- | --- |
| COC(=O)c1ccc(CSC2=NCCS2)cc1 | 2.91 µM [rising, full curve, poor fit] | – |
| O=C(Nc1nc2c(F)cc(F)cc2s1)c1ccccn1 | 3.55 µM [falling, full curve, poor fit] | 3.16 µM [falling, full curve] |
| Cc1ccc(C)c(NC(=O)CN(C)C(=O)c2ccccc2OCc2ccccc2Cl)c1 | 25.9 µM [falling, single point] | – |
| CCOC(=O)c1[nH]cnc1C(=O)NC1CCN(C(=O)OC(C)(C)C)CC1 | 5.8 µM [rising, partial curve, poor fit] | – |
| COC(=O)c1ccc(C(=O)OC)c(NC(=O)COc2ccccc2OC)c1 | 25.9 µM [falling, partial curve, poor fit] | – |
| Cc1ccc(-n2ncc3c(Nc4cccc(C(=O)O)c4)ncnc32)cc1 | 10.3 µM [falling, partial curve] | 1.84 µM [rising, partial curve, poor fit] |
| O=C(Nc1ccccc1N1CCN(C(=O)c2ccccc2)CC1)c1ccco1 | 25.1 µM [falling, single point] | – |
| CCCOc1ccc(C(=O)CCC(=O)OCC(=O)Nc2cc(C)on2)cc1 | 16.4 µM [rising, partial curve, poor fit] | – |
| Cc1nc2ccc(NS(=O)(=O)c3cccc([N+](=O)[O-])c3)cc2s1 | 29.1 µM [falling, single point] | – |
| Cc1cccc(/C=C/c2onc(C)c2S(=O)(=O)N2CCC(C(=O)N3CCCCC3)CC2)c1 | 1.26 µM [rising, partial curve, poor fit] | – |
| CCN(CC)CCCN=C1N[C@@H](c2cccc(F)c2)C(C(=O)OC)=C(C)N1Cc1ccccc1 | 13 µM [falling, partial curve, poor fit] | – |
| COC(=O)c1ccccc1NC(=O)c1cc(-c2ccc(O)cc2)on1 | 0.316 µM [falling, full curve, poor fit] | – |
| Cn1c(-c2ccccc2F)cc2onc(-c3ccccc3)c2c1=O | 0.146 µM [rising, full curve, poor fit] | – |
| O=C(CC1Nc2ccccc2NC1=O)NCCc1ccccc1 (stereo unspecified) | 13 µM [falling, partial curve, poor fit] | – |
| c1ccc(CNc2nc(-c3ccccn3)nc3ccccc23)cc1 | 12.6 µM [falling, partial curve] | – |
| O=C(NC1CCCC1)c1n[nH]c2ccccc12 | 11.2 µM [falling, partial curve] | – |
| O=C(CCl)N(C1CCCC1)C1CCS(=O)(=O)C1 (stereo unspecified) | 35.5 µM [falling, single point] | – |
| COc1ccc(C)cc1NC(=O)C12CCC(C)(C(=O)O1)C2(C)C (stereo unspecified) | 6.51 µM [rising, single point] | – |
| CC(C)(C)c1csc(N(CCC#N)CCC#N)n1 | 0.259 µM [rising, full curve, poor fit] | – |

Reference: PubChem BioAssay AID493014 (National Center for Advancing Translational Sciences (NCATS), 2011)
